Taken from: PubChem BioAssay AID1224826 (NIAID, 2016)
Test: 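Knock-downs that raise or lower Tnf reporter signal after endotoxin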 (primary screen). System: RAW264.7 G9 macrophages from mouse bearing reporters for p65 (GFP) and the Tnf promoter (mCherry). Knock-down reagent: siRNA pool against mouse genes, 100 nM. Time to read-out: 16 h of LPS stimulation, after 2 days of siRNA transfection. Challenge: bacterial lipopolysaccharide (Salmonella minnesota R595), 10 ng/ml. Detection: 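Nuclear mCherry signal of the Tnf promoter reporter measured by imaging after background removal, scaled to each plate median and turned into robust z-scores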. Direction: Tnf reporter robust z-score: higher = stronger Tnf promoter reporter signal after LPS. Call rule: 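a well counts as active at a score of -1.3 or below (Tlr4 knock-down control median) or above 3 (raised signal); controls and wells holding fewer than 50 cells are excluded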. Calls: active = Tnf reporter clearly lowered or raised; inactive = no clear change in Tnf reporter.
The deposit covers about 17,000 reagents; shown is a part drawn at random. About 1,110 of them (6.6%) count as active. 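Active means lowered or raised reporter signal; replicate intensities are raw and not normalised per plate.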 Further read-outs or replicates are left out here.

What did the screen give for Syn3 (GeneID 27204)?
fewer than 50 cells in well: fewer than 50 cells per well; well left out of calls; call: inactive

How did the screen score Ndufa10 (GeneID 67273)?
Tnf reporter robust z-score: -1.28; fewer than 50 cells in well: enough cells in well; call: inactive

With Phex (GeneID 18675), what does the deposit list?
Tnf reporter robust z-score: 0.37; fewer than 50 cells in well: enough cells in well; call: inactive

With Tpmt (GeneID 22017), what was measured?
Tnf reporter robust z-score: 0.27; fewer than 50 cells in well: enough cells in well; call: inactive

With Clcn1 (GeneID 12723), what was measured?
Tnf reporter robust z-score: -0.05; fewer than 50 cells in well: enough cells in well; call: inactive

With Trim44 (GeneID 80985), how do the results read?
Tnf reporter robust z-score: 0.4; fewer than 50 cells in well: enough cells in well; call: inactive

Which result is listed for Rpl7l1 (GeneID 66229)?
Tnf reporter robust z-score: 1.93; fewer than 50 cells in well: enough cells in well; call: inactive

With Fam234a (GeneID 106581), how do the results read?
Tnf reporter robust z-score: -0.62; fewer than 50 cells in well: enough cells in well; call: inactive

Which result is listed for Slc7a12 (GeneID 140918)?
Tnf reporter robust z-score: 0.01; fewer than 50 cells in well: enough cells in well; call: inactive

What is on record for Ubxn10 (GeneID 212190)?
Tnf reporter robust z-score: 0.58; fewer than 50 cells in well: enough cells in well; call: inactive

With Dkk1 (GeneID 13380), how do the results read?
Tnf reporter robust z-score: -0.94; fewer than 50 cells in well: enough cells in well; call: inactive

Which result is listed for Or5ak24 (GeneID 258425)?
Tnf reporter robust z-score: -0.19; fewer than 50 cells in well: enough cells in well; call: inactive

For Prl7a1 (GeneID 19113), what was measured?
Tnf reporter robust z-score: 0.8; fewer than 50 cells in well: enough cells in well; call: inactive

With Ipmk (GeneID 69718), what does the deposit list?
Tnf reporter robust z-score: -0.15; fewer than 50 cells in well: enough cells in well; call: inactive

What is on record for Trim27 (GeneID 19720)?
Tnf reporter robust z-score: 1.05; fewer than 50 cells in well: enough cells in well; call: inactive

How did the screen score Tdg (GeneID 21665)?
fewer than 50 cells in well: fewer than 50 cells per well; well left out of calls; call: inactive

Which result is listed for Htr2c (GeneID 15560)?
Tnf reporter robust z-score: 0.19; fewer than 50 cells in well: enough cells in well; call: inactive

With Pkd1 (GeneID 18763), what does the deposit list?
Tnf reporter robust z-score: 0.52; fewer than 50 cells in well: enough cells in well; call: inactive

For Nol6 (GeneID 230082), how do the results read?
Tnf reporter robust z-score: 2.21; fewer than 50 cells in well: enough cells in well; call: inactive

Which result is listed for Ndst4 (GeneID 64580)?
Tnf reporter robust z-score: 0.5; fewer than 50 cells in well: enough cells in well; call: inactive

With Shpk (GeneID 74637), what does the deposit list?
Tnf reporter robust z-score: -0.59; fewer than 50 cells in well: enough cells in well; call: inactive

What is on record for Cd44 (GeneID 12505)?
Tnf reporter robust z-score: 0.07; fewer than 50 cells in well: enough cells in well; call: inactive

What is on record for Or12k5 (GeneID 227789)?
Tnf reporter robust z-score: -0.45; fewer than 50 cells in well: enough cells in well; call: inactive

What did the screen give for Tmub1 (GeneID 64295)?
fewer than 50 cells in well: fewer than 50 cells per well; well left out of calls; call: inactive

For Serpinb8 (GeneID 20725), how do the results read?
fewer than 50 cells in well: fewer than 50 cells per well; well left out of calls; call: inactive

What is on record for Rab3d (GeneID 19340)?
Tnf reporter robust z-score: -0.3; fewer than 50 cells in well: enough cells in well; call: inactive

For Or6c210 (GeneID 258541), how do the results read?
fewer than 50 cells in well: fewer than 50 cells per well; well left out of calls; call: inactive

Records above whose gene name starts with C or c:
Clcn1 (GeneID 12723): Tnf reporter robust z-score = -0.05; fewer than 50 cells in well = enough cells in well; call = inactive
Cd44 (GeneID 12505): Tnf reporter robust z-score = 0.07; fewer than 50 cells in well = enough cells in well; call = inactive
